From PubChem BioAssay AID2685 (National Center for Advancing Translational Sciences (NCATS), 2010)
The other results are listed elsewhere or left out. These are further read-outs of the screen, such as a control signal, another cell line or another target. No call is given for them. Most of these compounds were active or inconclusive in the main read-out, so they are no random draw. Words in brackets tell the shape of the fitted curve; partial curves, single points and poor fits give uncertain potencies.

Experiment: qHTS Assay for Lipid Storage Modulators in Drosophila S3 Cells;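 as to cell number change: cells counted by Cell Tracker Red CMTPX staining in the red channel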
Settings: BODIPY lipid droplet fluorescence, 18-24 h; for cell number change: measured here: cell count max response, cells fed with added oleic acid
How it was run: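 Drosophila S3 cells got compounds at several concentrations plus oleic acid (400 uM solution). Laser-scanning cytometry with 488 nm excitation read lipid droplets at 500-530 nm and cells at 575-640 nm. Percent activity was relative to 20 uM Triacsin C.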

[1] = measured here: lipid fluorescence (Fed channel) AC50, cells fed with added oleic acid
[2] = measured here: cell number channel AC50, cells fed with added oleic acid

SMILES | cell number change | AC50 [1] | AC50 [2]
CN(C)C(=O)CN1CCN(Cc2nc(CC3CC3)no2)CC1 | -12.9% | 3.26 µM [falling, full curve] | 
Cc1ccc(-n2nc3c(=O)n(C(C)C(=O)NCc4ccc(Cl)cc4)nc(C)c3c2C)cc1 (configuration not stated) | 8.73% | 6.51 µM [rising, single point] | 
CC(=O)c1ccc(OC(=O)N2CCOCC2)cc1 | 0.88% |  | 
CN(C)Cc1c(O)ccc2c3c(c(=O)oc12)CCCCC3 | -0.542% | 1.84 µM [falling, partial curve] | 
CCCS(=O)(=O)N1CCCC(c2nc(-c3cccc(OC)c3)no2)C1 (configuration not stated) | -30.1% |  | 11.6 µM [falling, partial curve]
Cc1[nH]c(C(=O)O)c(C)c1C(=O)OC(C)C | -5.29% | 7.31 µM [falling, partial curve] | 
C=CCn1c(SCC(=O)NNC(=O)Nc2cccc(Cl)c2)nnc1-c1ccccc1 | -0.258% |  | 
CC(OC(=O)c1cc[n+]([O-])cc1)C(=O)Nc1ccc(Cl)cn1 (configuration not stated) | -0.128% |  | 
Cc1cnc(C(=O)OCC(=O)NC2CCCCCCC2)cn1 | -25.2% |  | 
COC(=O)CSc1nc(C)cc(N2CCOCC2)n1 | -17.9% |  | 
CN1c2ccsc2/C(=N/NC(=O)c2c(F)cccc2F)CS1(=O)=O | 22.1% |  | 
CC1(C(=O)NC2CCCC2)CCC(=O)N1Cc1ccc2c(c1)OCO2 (configuration not stated) | 19.1% | 16.4 µM [rising, single point] | 
O=C(Nc1cccnc1)c1ccc(Cl)c([N+](=O)[O-])c1 | 19.9% |  | 
O=C(COC(=O)Cc1ccc(Cl)cc1)NCc1ccc(F)cc1 | 16.1% |  | 
Cc1ccc(C2/C(=C(/O)c3ccc(Br)cc3)C(=O)C(=O)N2Cc2ccco2)o1 (configuration not stated) | -24.4% |  | 0.231 µM [falling, full curve, poor fit]
Cc1ccccc1Nc1nc(N)nc(COC(=O)C2CCCCC2)n1 | 25.2% |  | 1.64 µM [rising, partial curve, poor fit]
O=C(CNC(=O)c1nc[nH]c1C(=O)N1CCN(c2ccccc2)CC1)OCc1ccccc1 | 19.5% | 0.731 µM [falling, full curve] | 
CCCCNC(=O)c1cc(-c2ccc(OC)cc2)on1 | -7.78% | 2.59 µM [rising, partial curve] | 
Clc1ccc(Cn2ncc3c(NCCN4CCOCC4)ncnc32)cc1 | 11.8% | 16.4 µM [rising, single point] | 
Clc1ccc(CSc2cc3c(nn2)-c2ccccc2CC3)cc1Cl | 58.3% | 29.1 µM [rising, single point] | 13 µM [rising, partial curve]
O=C(c1cccs1)N1CCN(CCCc2ccccc2)CC1 | -0.533% |  | 
CCOC(=O)N1CCN(C(=O)COC(=O)CN(C)S(=O)(=O)c2ccc(NC(C)=O)cc2)CC1 | 8.11% |  | 

Of the compounds above, these contain an aryl methoxy group:
SMILES | cell number change | AC50 [1] | AC50 [2]
CCCS(=O)(=O)N1CCCC(c2nc(-c3cccc(OC)c3)no2)C1 (configuration not stated) | -30.1% |  | 11.6 µM [falling, partial curve]
CCCCNC(=O)c1cc(-c2ccc(OC)cc2)on1 | -7.78% | 2.59 µM [rising, partial curve] | 

(list continues)

SMILES | cell number change | AC50 [1] | AC50 [2]
CCOc1ccccc1/C=N/NC(=O)CSc1n[nH]c(=O)[nH]c1=O | -26.2% | 0.291 µM [falling, partial curve, poor fit] | 
Cc1cc(C(=O)Cn2nnc3ccccc3c2=O)c(C)n1Cc1cccs1 | -37.4% |  | 32.6 µM [falling, single point]
O=C(O)c1ccc(COc2ccc(Cl)cc2)o1 |  | 18.4 µM [falling, partial curve] | 
O=C(NCCNC(=O)c1ccc(Br)o1)c1cccnc1 | 21.3% |  | 
O=C(c1ccc(=O)[nH]n1)N1CCN(S(=O)(=O)c2ccc(C(F)(F)F)cc2)CC1 | 2.43% | 0.0291 µM [falling, full curve, poor fit] | 
CC(=O)n1cc([C@@H]2C=C(C(=O)NCc3ccccc3)O[C@H](OCc3ccc(CO)cc3)C2)c2ccccc21 | -27.8% | 32.6 µM [falling, single point] | 
Cc1ccccc1-c1nc(SCc2ccccn2)c2c(=O)n(C)c(=O)n(C)c2n1 | 2.77% |  | 
COC(=O)C1CCN(C(=O)/C(C)=C\c2ccccc2)CC1 | -3.17% | 9.2 µM [falling, partial curve, poor fit] | 
CCc1cc2c(-c3ccccc3)cc(=O)oc2cc1OC(C)C(C)=O (configuration not stated) | -32.3% | 29.1 µM [falling, single point] | 18.4 µM [falling, partial curve, poor fit]
COC(=O)c1sc(NC(=O)/C=C/c2ccc(C)o2)nc1C | 6.83% | 5.17 µM [falling, single point] | 
CC(C)(C)NCC(O)(c1ccc(Cl)cc1)c1ccc(Cl)cc1 | 4.21% |  | 
O=C(N/N=C/c1ccccc1Br)c1cccc(S(=O)(=O)N2CCOCC2)c1 | 15.8% | 0.58 µM [rising, partial curve, poor fit] | 
O=C(Cn1nc(-c2ccc3c(c2)OCCO3)ccc1=O)Nc1cccc(NC(=O)c2ccccn2)c1 | -62.5% |  | 
Clc1ccccc1-c1nnc(-c2cccnc2)o1 | 4.67% |  | 
O=C(Nc1ccc(Cl)cc1)Nc1ccc(N2CCCC2)c(S(=O)(=O)Nc2ccccc2Cl)c1 | -26.2% | 29.1 µM [falling, single point] | 
O=C1CCC([N+](=O)[O-])C(c2cccc(Br)c2)N1 (configuration not stated) |  | 29.1 µM [falling, partial curve, poor fit] | 
CN(C)c1ccc(NC(=O)CC2NCCNC2=O)cc1 (configuration not stated) | -40.4% | 29.1 µM [falling, single point] | 29.1 µM [falling, single point]
O=c1cc(O)nc(SCc2ccccc2Cl)[nH]1 | -2.01% | 20.6 µM [rising, single point] | 
O=C(Nc1ccc(Cl)c([N+](=O)[O-])c1)ONC1=NCCCCC1 | 34.3% |  | 0.00651 µM [rising, full curve, poor fit]
O=C(COc1cccc2ccccc12)N1CCN(c2ccccc2)CC1 | -0.933% | 0.116 µM [rising, full curve] | 
CCc1nc(Nc2cc(OC)ccc2OC)c2oc3ccccc3c2n1 | -55.6% | 29.1 µM [falling, single point] | 4.61 µM [falling, single point]
COC(=O)c1ccc(O)cc1 | -9.72% |  | 

SMILES | cell number change | AC50 [1] | AC50 [2]
COc1cccc(C(=O)OC2CCN(C)CC2)c1 | -26.6% |  | 
C/C(=N/NC(=O)c1ccco1)c1cccc(NC(=O)c2ccc(C)s2)c1 | 34.2% | 2.31 µM [rising, partial curve] | 2.91 µM [rising, full curve, poor fit]
CC(Oc1ccccc1)C(=O)Nc1cccc(F)c1 (configuration not stated) | -6.22% | 3.26 µM [falling, full curve] | 0.731 µM [falling, full curve]
CCOC(=O)C1=C(C)N(c2ccccc2)C(=O)NC1c1cccc([N+](=O)[O-])c1 (configuration not stated) | 1.83% | 23.1 µM [rising, single point] | 
O=C(NCCC1=CCCCC1)C1CCN(C(=O)Nc2ccccc2)CC1 | -39.9% | 18.4 µM [falling, partial curve] | 5.17 µM [falling, full curve]
COc1cc(/C=N/n2cnnc2)ccc1OCc1ccccc1 | -6.53% |  | 
COc1ccc(-c2nc3ncccc3o2)cc1NC(=O)c1cccs1 | 12.6% | 6.51 µM [falling, single point] | 
Cc1ccc(-n2[nH]c(C)c(/C=N/N3C(=O)c4cccc5cccc(c45)C3=O)c2=O)cc1 | -27.8% |  | 
Cc1c(Cl)cccc1NC(=O)C1COc2ccccc2O1 (configuration not stated) | 10.3% |  | 
COc1cc(C)ccc1OCCOCCOc1cccc2ccc(C)nc12 | 3.49% | 0.146 µM [falling, full curve, poor fit] | 0.146 µM [falling, partial curve, poor fit]
COc1ccc(CCNC(=O)c2ccc(CNS(=O)(=O)c3ccccc3)cc2)cc1OC | 35.5% |  | 13 µM [rising, partial curve, poor fit]
CC(C)NC(=O)CSc1nnc(C2CC2)n1-c1ccccc1 | -4.83% | 4.11 µM [rising, partial curve, poor fit] | 0.0731 µM [rising, full curve, poor fit]
COc1ccc(CCNCC2C(Oc3ccc(Cl)cc3)C(=O)N2c2ccccc2C)cc1OC (configuration not stated) | -19% |  | 
O=C(Nc1ccccc1F)c1ccc(C(=O)c2ccccc2)cc1 | -45.5% | 32.6 µM [falling, partial curve] | 29.1 µM [falling, single point]
C/C=C\C=C/C(=O)Nc1cccc(C2=NOC3(C2)C[C@@H](C(N)=O)N(C(=O)C2(C)CC2)C3)c1 (some centres not stated) | 3.83% | 6.51 µM [rising, single point] | 
O=C(Nc1cccc(-c2ccc(N3CCCCC3)nn2)c1)C(F)(F)F | -59.5% |  | 16.4 µM [falling, single point]
COc1cccc(N(CC(=O)NC2CCCCC2)C(=O)CCC(=O)Nc2nc(C)cs2)c1 | -4.35% | 6.51 µM [rising, partial curve, poor fit] | 
COc1ccc(N(C(=O)c2ccncc2)S(=O)(=O)c2cccc([N+](=O)[O-])c2)cc1 | 20.6% | 0.092 µM [rising, full curve, poor fit] | 
CCn1c(SCC(=O)Nc2cc(C)on2)nnc1-c1cccc(C)c1 | -2.63% |  | 
CCn1c(CCC(=O)O)nc2cc(S(=O)(=O)N(C)C)ccc21 | 9.34% | 2.91 µM [falling, single point] | 
CCc1ccccc1N(C(=O)c1snc(C(N)=O)c1N)C(C(=O)NCC1CCCO1)c1ccc(N(C)C)cc1 (configuration not stated) | 13.3% | 1.64 µM [rising, partial curve] | 
CCOC(=O)c1ccc(S(=O)(=O)N2CC(=O)Nc3ccccc32)cc1 | 7.56% |  | 

In a second layout: entries from further up.

| SMILES | cell number change | AC50 [1] | AC50 [2] |
| --- | --- | --- | --- |
| O=C(Nc1cccc(-c2ccc(N3CCCCC3)nn2)c1)C(F)(F)F | -59.5% |  | 16.4 µM [falling, single point] |
| COc1cccc(N(CC(=O)NC2CCCCC2)C(=O)CCC(=O)Nc2nc(C)cs2)c1 | -4.35% | 6.51 µM [rising, partial curve, poor fit] |  |
